These are yes or no findings as the source states them, for the method shown. In cells and extracts the contact can be indirect. A result given as binding can be weak or reduced; the word gives no strength.

For this test, the target named is T1, HECTD3 (endogenous, rat liver) (rat (endogenous in rat liver)) (UniProt F1LVZ9).
T1 sequence: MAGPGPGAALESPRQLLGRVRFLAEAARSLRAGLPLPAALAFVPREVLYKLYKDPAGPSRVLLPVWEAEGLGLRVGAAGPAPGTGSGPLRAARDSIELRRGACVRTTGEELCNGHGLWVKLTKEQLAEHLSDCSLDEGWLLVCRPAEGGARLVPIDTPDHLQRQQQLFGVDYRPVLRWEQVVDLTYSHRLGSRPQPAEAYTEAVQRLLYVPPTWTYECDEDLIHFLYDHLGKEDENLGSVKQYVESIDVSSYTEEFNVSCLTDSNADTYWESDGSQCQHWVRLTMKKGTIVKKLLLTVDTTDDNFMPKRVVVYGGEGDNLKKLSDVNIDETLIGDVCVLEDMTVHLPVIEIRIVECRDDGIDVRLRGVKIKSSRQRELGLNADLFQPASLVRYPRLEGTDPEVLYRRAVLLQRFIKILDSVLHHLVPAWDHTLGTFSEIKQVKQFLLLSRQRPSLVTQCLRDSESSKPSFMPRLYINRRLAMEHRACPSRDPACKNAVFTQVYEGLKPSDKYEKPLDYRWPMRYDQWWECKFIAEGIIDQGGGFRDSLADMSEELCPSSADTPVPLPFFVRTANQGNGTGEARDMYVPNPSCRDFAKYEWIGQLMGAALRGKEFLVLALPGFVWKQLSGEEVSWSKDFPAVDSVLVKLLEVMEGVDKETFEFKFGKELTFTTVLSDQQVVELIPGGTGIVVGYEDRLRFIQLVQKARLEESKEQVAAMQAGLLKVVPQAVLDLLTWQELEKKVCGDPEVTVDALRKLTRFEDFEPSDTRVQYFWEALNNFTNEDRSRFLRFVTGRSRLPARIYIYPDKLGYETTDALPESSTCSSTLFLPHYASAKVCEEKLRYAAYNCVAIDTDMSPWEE
Put plainly: co-IP; rat liver tissue protein extracts (DCD model; CS and HOPE groups compared); IP with anti-HECTD3 antibody, protein A + G agarose beads, 4 °C; immunoblot.

For TRAF3 (endogenous, rat liver), the binding result is reported as “binds”.

Values taken from article PMC7904838.
